Results are given in words; binding and its absence hold for the method and conditions named. Some entries that bind do so weakly or less than the wild type.
Target: human CD25 (Interleukin-2 receptor alpha chain) (human) (UniProt P01589)
Assay: Flow cytometry on CD25 positive SU-DHL1 cells, antibody at 10 ug/ml, APC goat anti-human IgG detection

Amino acid sequences for entries named in this document (tags omitted). A change or cut given only in a name is not applied to a line headed by its entry.
UniProt P01589: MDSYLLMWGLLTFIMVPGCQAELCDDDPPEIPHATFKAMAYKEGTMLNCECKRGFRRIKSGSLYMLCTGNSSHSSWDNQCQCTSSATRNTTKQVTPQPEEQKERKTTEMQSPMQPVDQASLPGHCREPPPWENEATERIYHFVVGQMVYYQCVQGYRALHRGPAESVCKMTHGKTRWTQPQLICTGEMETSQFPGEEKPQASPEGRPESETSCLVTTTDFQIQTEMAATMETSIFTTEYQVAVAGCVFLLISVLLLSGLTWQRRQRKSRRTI

| Binder | binding |
| --- | --- |
| MAB02 (antibody, V domains shown) VH: QVQLVESGGGVVQPGRSLRLSCAASGFTFSNHAMAWVRQAPKKGLEWVAYISYDGDNTYYRDSVKGRFTISRDNAQSTLYLQMNSLRAEDTAVYYCTTGGNSGYDWGQGTLVTVSS VL: DIQMTQSPSSLSASVGDRVTITCRASQNVNKFLNWYQQKPGKAPRRLIYGTNSLQSGVPSRFSGSGSGTDYTLTISSLQPEDFATYYCQQYTSWPWTFGQGTKLEIK | binds |
| MAB09 (antibody, V domains shown) VH: QVQLVESGGGVVQPGRSLRLSCAASGFTFSNHAMAWVRQAPGKGLEWVAYISYDGDNTYYADSVKGRFTISRDNAKSTLYLQMNSLRAEDTAVYYCTTGGNSGYDWGQGTLVTVSS VL: DIQMTQSPSSLSASVGDRVTITCKGSQNVNKFLNWYQQKLGEAPRRLIYGTNSLQTGVPSRFSGSGSGTDYTLTISSLQPEDFATYYCQQYTSWPWTFGQGTKLEIK | binds |

Next, values leading:

| binding | Binder |
| --- | --- |
| binds | MAB18 (antibody, V domains shown) VH: QVQLVESGGGVVQPGRSLRLSCAASGFTFSSHAMAWVRQAPGKGLEWVAYISYDGDNTYYADSVKGRFTISRDNSKNTLYLQMNSLRAEDTAVYYCTTGGNSGYDWGQGTLVTVSS VL: DIQMTQSPSSLSASVGDRVTITCRASQNVNKFLNWYQQKPGKAPRRLIYGTNSLQSGVPSRFSGSGSGTDYTLTISSLQPEDFATYYCQQYTSWPWTFGQGTKLEIK |
| binds | MAB17 (antibody, V domains shown) VH: QVQLVESGGGVVQPGRSLRLSCAASGFTFSSHAMAWVRQAPGKGLEWVAYISYDGDNTYYADSVKGRFTISRDNSKNTLYLQMNSLRAEDTAVYYCTTGGNSGYDWGQGTLVTVSS VL: DIQMTQSPSSLSASVGDRVTITCKGSQNVNKFLNWYQQKLGEAPRRLIYGTNSLQTGVPSRFSGSGSGTDYTLTISSLQPEDFATYYCQQYTSWPWTFGQGTKLEIK |
| binds | MAB10 (antibody, V domains shown) VH: QVQLVESGGGVVQPGRSLRLSCAASGFTFSNHAMAWVRQAPGKGLEWVAYISYDGDNTYYADSVKGRFTISRDNAKSTLYLQMNSLRAEDTAVYYCTTGGNSGYDWGQGTLVTVSS VL: DIQMTQSPSSLSASVGDRVTITCRASQNVNKFLNWYQQKPGKAPRRLIYGTNSLQSGVPSRFSGSGSGTDYTLTISSLQPEDFATYYCQQYTSWPWTFGQGTKLEIK |

From patent publication US20240002521A1
